This data set in a line: general procedure: Fmoc solid-phase peptide synthesis; Rink Amide MBHA resin; HATU/HOAt/DIEA. The note with it: for final HPLC purity: analytical HPLC (Luna C18), UV 220 nm.
Setting [1] is: whole synthesis, scale of the general procedure 0.05 mmol.

The record followed here is publication PMC10837402 (EJNMMI Radiopharmacy and Chemistry, 2024).

As to “D-Phe-Gln-5-Me-Trp-Ala-Val-Gly-His-Leu-Thz-NH2”, under setting [1], the “final HPLC purity” value is 98% and the isolated yield is listed as 33%.
The like results for “D-Phe-Gln-Trp-2-Abu-Val-Gly-His-Leu-Thz-NH2” were, in that order, 99% and 27%.
With “Ga-DOTA-Pip-D-Phe-Gln-5-Me-Trp-Ala-Val-Gly-His-Leu-Thz-NH2”, under “late stage modification step”, the step yield was 84% and the “final HPLC purity” value came out at 98%.
As for “D-Phe-Gln-6-Cl-Trp-Ala-Val-Gly-His-Leu-Thz-NH2”, under setting [1], the “final HPLC purity” value was 98% and the isolated yield is 18%.
Regarding “DOTA-Pip-D-Phe-Gln-2-Me-Trp-Ala-Val-Gly-His-Leu-Thz-NH2”, under setting [1], the “final HPLC purity” value came to 99% and the isolated yield stood at 16%.
Take “DOTA-Pip-D-Phe-Gln-Trp-Ala-Tle-Gly-His-Leu-Thz-NH2”: under setting [1], the “final HPLC purity” value is 99% and the isolated yield is listed as 26%.
As for “Ga-DOTA-Pip-D-Phe-His-Trp-Ala-Tle-NMe-Gly-NMe-His-Leu-Thz-NH2”, where the note is “late stage modification step”, the step yield is reported as 47% and the “final HPLC purity” value was determined as 99%.
For “D-Phe-Gln-6-Me-Trp-Ala-Val-Gly-His-Leu-Thz-NH2”, under setting [1], the “final HPLC purity” value is recorded as 99% and the isolated yield is on record as 29%.
For “D-Phe-Gln-7-F-Trp-Ala-Val-Gly-His-Leu-Thz-NH2”, under setting [1], the “final HPLC purity” value is 98% and the isolated yield was 24%.
With “D-Phe-Gln-Bta-Ala-Val-Gly-His-Leu-Thz-NH2”, under setting [1], the “final HPLC purity” value is given as 96% and the isolated yield worked out at 24%.
Regarding “D-Phe-Gln-Trp-Ala-cyclopropylglycine-Gly-His-Leu-Thz-NH2”, under setting [1], the “final HPLC purity” value worked out at 98% and the isolated yield is given as 11%.
For “DOTA-Pip-D-Phe-His-Trp-Ala-Tle-Gly-NMe-His-Leu-Thz-NH2”, in that order: 99% and 17%.
In the case of “D-Phe-Gln-Trp(Me)-Ala-Val-Gly-His-Leu-Thz-NH2”, under setting [1], the “final HPLC purity” value is 99% and the isolated yield is 30%.
Turning to “D-Phe-Gln-4-Me-Trp-Ala-Val-Gly-His-Leu-Thz-NH2”, under setting [1], the “final HPLC purity” value came out at 99% and the isolated yield was determined as 26%.
The like results for “D-Phe-Gln-6-F-Trp-Ala-Val-Gly-His-Leu-Thz-NH2” were, in that order, 99% and 40%.
As for “DOTA-Pip-D-Phe-His-Trp-Ala-Tle-NMe-Gly-NMe-His-Leu-Thz-NH2”, under setting [1], the “final HPLC purity” value was 99% and the isolated yield was 16%.
On to “D-Phe-Gln-7-Aza-Trp-Ala-Val-Gly-His-Leu-Thz-NH2”, for which, under setting [1], the “final HPLC purity” value is listed as 99% and the isolated yield is recorded as 8.4%.
For “D-Phe-Gln-D-Tpi-Ala-Val-Gly-His-Leu-Thz-NH2”, in that order: 96% and 20%.
As for “D-Phe-Gln-Trp-Ala-Val-Gly-His-Leu-Thz-NH2”, under setting [1], the “final HPLC purity” value amounted to 99% and the isolated yield is recorded as 41%.
For the substance “Ga-DOTA-Pip-D-Phe-Gln-7-F-Trp-Ala-Val-Gly-His-Leu-Thz-NH2”, under “late stage modification step”, the step yield is given as 82% and the “final HPLC purity” value came out at 99%.
For “D-Phe-Gln-Trp-Ala-2-Abu-Gly-His-Leu-Thz-NH2”, under setting [1], the “final HPLC purity” value was 96% and the isolated yield came out at 46%.
For “Ga-DOTA-Pip-D-Phe-Gln-2-Me-Trp-Ala-Val-Gly-His-Leu-Thz-NH2”, where the note is “late stage modification step”, the step yield was determined as 81% and the “final HPLC purity” value came to 99%.
For the substance “DOTA-Pip-D-Phe-Gln-7-F-Trp-Ala-Tle-Gly-NMe-His-Leu-Thz-NH2”, under setting [1], the “final HPLC purity” value worked out at 97% and the isolated yield came to 21%.
Turning to “D-Phe-Gln-5-F-Trp-Ala-Val-Gly-His-Leu-Thz-NH2”, under setting [1], the “final HPLC purity” value was 99% and the isolated yield turned out to be 46%.
The like results for “D-Phe-Gln-5-OH-Trp-Ala-Val-Gly-His-Leu-Thz-NH2” were, in that order, 99% and 21%.
Consider “DOTA-Pip- D-Phe-Gln-α-Me-Trp-Ala-Val-Gly-His-Leu-Thz-NH2”, for which, under setting [1], the “final HPLC purity” value was 98% and the isolated yield is 4.0%.
Take “Ga-DOTA-Pip-D-Phe-Gln-α-Me-Trp-Ala-Val-Gly-His-Leu-Thz-NH2”: under “late stage modification step”, the step yield was found to be 72% and the “final HPLC purity” value turned out to be 97%.
For “D-Phe-Gln-Trp-Aib-Val-Gly-His-Leu-Thz-NH2”, under setting [1], the “final HPLC purity” value is listed as 99% and the isolated yield is 13%.
“D-Phe-Gln-Trp-Ala-Tle-Gly-His-Leu-Thz-NH2 (FQWA; D-residue, Tle, Thz, C-terminal amide; printed: Phe-Gln-Trp-Ala-)”: under setting [1], the “final HPLC purity” value is 99% and the isolated yield is reported as 26%.
For “Ga-DOTA-Pip-D-Phe-Gln-Trp-Ala-Tle-Gly-NMe-His-Leu-Thz-NH2”, under “late stage modification step”, the step yield is recorded as 54% and the “final HPLC purity” value is listed as 98%.
For “D-Phe-Gln-Trp-Ala-cyclobutaneacetic acid-Gly-His-Leu-Thz-NH2”, under setting [1], the “final HPLC purity” value came out at 98% and the isolated yield is listed as 15%.
On to “Ga-DOTA-Pip-D-Phe-Gln-7-F-Trp-Ala-Tle-Gly-NMe-His-Leu-Thz-NH2”, for which, for the setting “late stage modification step”, the step yield is 87% and the “final HPLC purity” value is given as 99%.
With “DOTA-Pip-D-Phe-Gln-7-F-Trp-Ala-Val-Gly-His-Leu-Thz-NH2”, under setting [1], the “final HPLC purity” value was 98% and the isolated yield came out at 33%.
Take “Ga-DOTA-Pip-D-Phe-His-Trp-Ala-Tle-Gly-NMe-His-Leu-Thz-NH2”: where the note is “late stage modification step”, the step yield is listed as 53% and the “final HPLC purity” value stood at 99%.
Turning to “DOTA-Pip-D-Phe-Gln-Trp-Ala-Val-Gly-NMe-His-Leu-Thz-NH2”, under setting [1], the “final HPLC purity” value came to 95% and the isolated yield is recorded as 19%.
With “Ga-DOTA-Pip-D-Phe-Gln-Trp-Ala-Val-Gly-NMe-His-Leu-Thz-NH2”, where the note is “late stage modification step”, the step yield is 73% and the “final HPLC purity” value was 99%.
Regarding “Ga-DOTA-Pip-D-Phe-Gln-Trp-Ala-Tle-Gly-His-Leu-Thz-NH2”, for the setting “late stage modification step”, the step yield was found to be 59% and the “final HPLC purity” value came to 99%.
As for “D-Phe-Gln-4-F-Trp-Ala-Val-Gly-His-Leu-Thz-NH2”, under setting [1], the “final HPLC purity” value is recorded as 96% and the isolated yield was 36%.
Take “D-Phe-Gln-Trp-Ala-2,3-dehydro-Val-Gly-His-Leu-Thz-NH2”: under setting [1], the “final HPLC purity” value is given as 99% and the isolated yield is 5.0%.
With “D-Phe-Gln-Trp-Ala-3-amino-1-carboxymethylcarprolactame-His-Leu-Thz-NH2”, under setting [1], the “final HPLC purity” value is 95% and the isolated yield turned out to be 10%.
Consider “D-Phe-Gln-7-Me-Trp-Ala-Val-Gly-His-Leu-Thz-NH2”, for which, under setting [1], the “final HPLC purity” value is listed as 99% and the isolated yield came to 25%.
“D-Phe-Hse-Trp-Ala-Val-Gly-His-Leu-Thz-NH2”: under setting [1], the “final HPLC purity” value was 98% and the isolated yield came out at 2.2%.
For “DOTA-Pip-D-Phe-Gln-5-Me-Trp-Ala-Val-Gly-His-Leu-Thz-NH2”, in that order: 98% and 19%.
Take “D-Phe-Gln-Trp-Ala-Val-Gly-NMe-His-Leu-Thz-NH2”: under setting [1], the “final HPLC purity” value was 98% and the isolated yield is recorded as 29%.
For “DOTA-Pip-D-Phe-Gln-Trp-Ala-Tle-Gly-NMe-His-Leu-Thz-NH2”, under setting [1], the “final HPLC purity” value came to 97% and the isolated yield was 11%.
As for “D-Phe-Gln-2-Me-Trp-Ala-Val-Gly-His-Leu-Thz-NH2”, under setting [1], the “final HPLC purity” value was 99% and the isolated yield is reported as 23%.
